Measurements taken from US20240141048A1.
These are yes or no findings as the source states them, for the method shown. Some entries that bind do so weakly or less than the wild type.

T1: Human VISTA recombinant protein (Sino Biological Inc., Cat. #13482-H08H), biotinylated (human) (UniProt Q9H7M9)
T1 sequence (chain, biotinylated with EZ-LINK NHS-PEG4 biotin): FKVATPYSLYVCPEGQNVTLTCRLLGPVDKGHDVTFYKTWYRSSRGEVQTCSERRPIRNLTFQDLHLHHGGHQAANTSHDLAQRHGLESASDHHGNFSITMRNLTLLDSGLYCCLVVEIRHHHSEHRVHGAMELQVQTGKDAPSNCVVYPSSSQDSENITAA

B1: anti-VISTA antibody 16A1 (antibody, IgG1, V domains shown)
VH: QVQLQQSGAELMKPGASVKISCKATGYTFSSSWIEWVKQRPGHGLEWIGEIFPGSGSLNFNEKFKGKATFTADTSSNTAYLQLSSLTSDDSAVYYCARRPPGWFFDVWGAGTTVTVSS
VL: DIVMTQSHKFMSTSVGDRVSITCKASQDVTTDVAWYQQKPGQSPKLLIYSASYRYTGVPDRFTGSGSGTDFTFTISSVQAEDLTVYYCQQHYSSPWTFGGGTKLEIK
B2: anti-VISTA antibody 17E9 (antibody, IgG1, V domains shown)
VH: QVQLQQSGAELMKPGASVKISCTATGYTFSSCWIEWVKQRPGHGLEWLGEILPGSDYTNYNEKFKDKATFTADTSSDTAYMQLSSLTSEDSAVYYCARRPPGWYFDVWGAGTAVTVSS
VL: DIVMTQSHKFMSTSVGDRVSITCKASQDVSTDIAWYQQKPGQSPKLLIYSASYRFTGVPDRFTGSGSGTDFTFTISSVQAEDLAVYYCQHQYSTPWTFGGGTKLDIK
B3: anti-VISTA antibody 20E4 (antibody, IgG1, V domains shown)
VH: QVQLQQSGAELMKPGASVKISCKATGYTFSSSWVEWVRQRPGHGLEWIGEIFPGSGSTHYNEKFKGKATFTADTSSNTAYLQLSSLTSDDSAVYYCARRPPGWFFDVWGAGTTVTVSS
VL: DIVMTQSHKFMSTSVGDRVSITCKASQDVSTDVAWYQQKPGQSPKLLIYSASYRYTGVPDRFTGSGSGTDFTFTISSVQAEDLAVYYCQQHYSTPWTFGGGTKLEIK
B4: anti-VISTA antibody 9F9 (antibody, V domains shown)
VH: QVQFQQSGAELARPGASVKLSCKASGYTFTGYWMQWVKQRPGQGLEWIGAIYPGDGDTRYSQKFKGKVTLTADKSSSTAYMQLSSLASEDSAVYYCARRDYGAWFAYWGQGTLVTVSA
VL: DIKVTQSPSSMYASLGERVTITCKASQDINSYLSWFQQKPGKSPKTLIYRANRLVDGVPSRFSGSGSGQDYSLTISSLDYEDMGIYYCLQYDEFPYTFGGGTKLEIK
B5: anti-VISTA antibody 15D11 (antibody, V domains shown)
VH: EVQLQQSGSELVKAGASVKLSCTASGFKIKDTFIHWVKQRPEQGLDWIGRIDPANGNSKYDPKFQGKATITADTSSNTAYLQLSSLTSEDTAVYYCARWPSNWEAMDYWGQGTSVTVSS
VL: QIVLTQSPAIMSASPGEKVTMTCSASSSVSYMYWYQQKPGSSPRLLIYDTSNLASGVPFRFSGSGSGTSYSLTISRMEAEDAATYYCQQWISYPLTFGTGTKLELK

Experiments:
[1] = target: His-tagged cynomolgus VISTA extracellular domain protein (in house) (cynomolgus); assay: ELISA, hybridoma supernatant on coated cynomolgus VISTA (2 µg/mL)
[2] = target: T1, Human VISTA recombinant protein (Sino Biological Inc., Cat. #13482-H08H), biotinylated (human); assay: BLI (Octet QKe) epitope binning, biotinylated human VISTA on streptavidin tips, antibodies at 10 µg/ml

Binder | binding [1] | binding [2]
B1 | binds | –
B2 | binds | –
B3 | binds | –
B4 | binds | binds
B5 | binds | binds
